Source: the supplement of paper PMC3334620
In all, about 33,000 sequences were measured (“E-score (-0.5 to 0.5)”: median about -0.015, highest 2% from about 0.3 on). The list shows a part of the results.

What follows are sequences tested against T1, Abf1 (UniProt P14164) (assay: PBM E-score (8-mer binding enrichment) (E-score (-0.5 to 0.5)); higher = stronger / more preferred TF binding). Settings: protein concentration: 200 nM; construct: GST-full length.
T1 sequence: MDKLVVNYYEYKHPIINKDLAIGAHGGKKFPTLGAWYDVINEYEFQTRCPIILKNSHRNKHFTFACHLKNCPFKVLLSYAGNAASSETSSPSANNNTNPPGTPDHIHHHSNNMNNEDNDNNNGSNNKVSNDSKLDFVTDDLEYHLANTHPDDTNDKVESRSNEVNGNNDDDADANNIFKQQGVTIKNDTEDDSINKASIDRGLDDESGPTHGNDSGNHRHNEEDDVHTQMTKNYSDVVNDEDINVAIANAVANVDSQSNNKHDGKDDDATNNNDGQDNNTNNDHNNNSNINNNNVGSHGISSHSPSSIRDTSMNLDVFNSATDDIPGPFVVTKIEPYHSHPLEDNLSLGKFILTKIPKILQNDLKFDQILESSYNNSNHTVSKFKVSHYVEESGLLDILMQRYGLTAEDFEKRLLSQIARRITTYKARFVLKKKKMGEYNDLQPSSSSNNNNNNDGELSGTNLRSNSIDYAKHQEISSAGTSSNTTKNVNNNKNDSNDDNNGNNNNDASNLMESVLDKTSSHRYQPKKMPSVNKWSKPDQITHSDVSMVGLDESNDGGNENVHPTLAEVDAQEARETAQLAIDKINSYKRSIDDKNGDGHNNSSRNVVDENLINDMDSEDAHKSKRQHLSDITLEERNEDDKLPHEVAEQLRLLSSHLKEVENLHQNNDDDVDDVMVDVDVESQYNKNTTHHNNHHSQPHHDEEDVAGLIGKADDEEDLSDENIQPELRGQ
Method in brief: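 GST-tagged yeast TFs (full-length or DNA-binding domain) were made by PURExpress in vitro transcription/translation and applied at about 100-200 nM to universal all-10-mer Agilent arrays. The arrays were made double-stranded by primer extension, on fresh or once-stripped slides. Bound protein was detected with fluorescent anti-GST, and scans were normalised with masliner. Each ungapped eight-base word, pooled with its reverse complement, received an E-score (modified Wilcoxon-Mann-Whitney statistic) from the Universal PBM Analysis Suite.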

Row | Sequence | PBM E-score
1 | GATCTCGA | 0.0914
2 | AGATACAG | -0.0394
3 | AAGGCTCT | -0.195
4 | CACTCACC | -0.0641
5 | AGAAGAAT | -0.0254
6 | AGTCCCCC | -0.301
7 | ATGTCCCC | 0.12
8 | CCTTTGGA | -0.13
9 | ATTACTTC | -0.0372
10 | CTCTTAAA | 0.00665
11 | CTTATATC | 0.236
12 | AGGATAGA | -0.0436
13 | CCTAATCA | 0.0715
14 | AGATCCCC | -0.0182
15 | AGCCCATG | -0.036
16 | ATGGCATA | -0.00935
17 | AGTCTCGG | -0.0348
18 | AGCCCTAA | -0.168
19 | ACACACGA | 0.279
20 | CTATCCAC | 0.0745
21 | CGACTATA | 0.129
22 | ATACTGCA | 0.036

Row | Sequence | PBM E-score
23 | CGCCACTC | -0.0834
24 | CAGATCAG | 0.0875
25 | ACTGGATC | -0.13
26 | AAATGAAT | -0.0215
27 | AGATAATA | 0.107
28 | CGTTCCTA | 0.0602
29 | AAAGCGCC | -0.169
30 | GAGGTGCA | -0.0307
31 | AGAGAAAT | 0.135
32 | AAACGTGG | -0.115
33 | TTGGCAAA | 0.0371
34 | CTAGTCAA | -0.0964
35 | CGGCCAAG | -0.0491
36 | GGGTAGAC | -0.0257
37 | ACCATGAT | 0.0777
38 | ATCTCACC | 0.147
39 | ACATCCTC | 0.00654
40 | ACCTTGAC | -0.0458
41 | TAATGGCA | 0.0202
42 | CTCTTGCA | -0.162
43 | AGTCTCCA | 0.065
44 | CTCCGCGA | -0.0493

Row | Sequence | PBM E-score
45 | CGCTCGCC | -0.0715
46 | CCATTGCC | -0.264
47 | CCGATGAG | -0.18
48 | CCGAATCC | 0.13
49 | GGTGTGTA | -0.0157
50 | GCTCAAGA | -0.116
51 | CTGTATTC | -0.048
52 | ACGCTAAT | 0.00078
53 | CAGGACGG | -0.0334
54 | ACAGTGCT | 0.122
55 | ATCTCAAT | 0.15
56 | ACGAACTC | 0.257
57 | ATATGTCG | 0.288
58 | AGTCACTG | 0.0546
59 | GGCTGGAC | -0.282
60 | CTCCTTAA | -0.12
61 | ATTTAAAC | 0.0999
62 | AATATACA | 0.0254
63 | GGTGGTGA | 0.14
64 | CGTGTTCA | 0.177
65 | TAACCTTA | -0.0269
66 | CCATCAAC | 0.0413

In another format: entries from further up.
Row	Sequence	PBM E-score
55	ATCTCAAT	0.15
56	ACGAACTC	0.257
57	ATATGTCG	0.288
58	AGTCACTG	0.0546

The list continues.

Row | Sequence | PBM E-score
67 | CAATGAAG | 0.0513
68 | AATAGTAT | 0.079
69 | AACAGAGA | -0.09
70 | ATGGGGCC | -0.384
71 | CTATGTTC | -0.142
72 | ACACTAGC | 0.0858
73 | AACTTATT | 0.0636
74 | AACGGTTA | 0.0157
75 | AGACCACT | -0.0535
76 | AATAAGTC | -0.102
77 | GCCAGCGA | -0.00177
78 | CGGGGGTC | -0.205
79 | AAATACAA | 0.155
80 | CGGACACG | 0.112
81 | AACTGTAG | -0.2
82 | AAGTATCC | 0.0928
83 | CATGAAAA | 0.101
84 | GGGAACCC | -0.0593
85 | CGACGAGA | 0.13
86 | CCGGCTCG | -0.0287

Exported with each value named: part of the list above.
ACTGGATC
  PBM E-score: -0.13
CTAGTCAA
  PBM E-score: -0.0964
